Test results reported in publication PMC11212260, “Next-generation neuropeptide Y receptor small-molecule agonists inhibit mosquito-biting behavior” (Parasites & Vectors, 2024).
Where “and” joins values, the source holds several entries; their conditions need not be identical. Equal entries are not always repeated. A unit is not stated for every read-out.

Test system: Aedes aegypti (Orlando strain) females
Assay: Glytube feeding: females feeding to repletion and weight per female (meal palatability)
Type: in vivo
Settings: Supplemental Figure 1 Panel B; compounds of Fig 3; individual replicate values
Method: Groups of 60–150 females were placed in bucket cages with a diameter of 21.6 cm and height of 16.5 cm (VWR) and fasted with access to water for 24 h prior to feeding. Meals were delivered to females via Glytube membrane feeders as described previously. Meals consisted of 1.5 ml sheep blood (HemoStat Laboratories), saline (400 mM NaHCO3 + dih2O), or saline and test compound. Lyophilized compounds were stored at room temperature until use. High-concentration stocks (30 mM in 100% dimethyl sulfoxide [DMSO]) (Sigma-Aldrich) were stored at −20 °C and diluted in saline immediately prior to feeding. Once prepared, meals and glycerol heating elements were warmed in a 42 °C water bath for 15 min to provide warmth to attract mosquitos to feed. ATP (1 mM final concentration) and test compounds (1 μM final concentration) were added prior to placing the meal on top of the mesh on the cage containing female mosquitos. Females were allowed 15–20 min to feed to repletion. Abdominal engorgement was scored by eye and confirmed by weighing females to ensure full feeding (Data S1). […] Females were returned to their original cage with a diH2O wick for 48 h prior to behavioral testing. The lethality of each compound was measured by counting the number of dead females in each cage 24 h post-meal.
Supplementary file 13071_2024_6347_MOESM1_ESM.png: Supplementary Material 1: Figure 1. […] (A) Percent of females feeding to repletion and (B) weight per female after feeding on the indicated meal used for testing in Miniport olfactometer experiments in Figure 3B. (C) Percent of females feeding to repletion and (D) weight per female after feeding on the indicated meal used for testing in live host assays in Figure 4. Data are shown as mean with standard deviation. n = 2–22 replicate cages, 60–150 females/cage. Females were weighed in groups of five to ensure reliable readings. Kruskal–Wallis with Dunn’s multiple comparisons to saline-fed group, ns P > 0.01, * P < 0.01, *** P < 0.0001. (PNG 321 KB)

Compound | Weight per female
Cc1nc(NC(=N)N)nc2cc(OCC(F)(F)F)ccc12 [TDI-014168] | 4.14 and 3.8 and 3.84 and 3.86 and 3.64 and 3.76 and 4.28 and 4.24 and 4.5 and 4.4
Cc1nc(NC(=N)N)nc2cc(OC(F)F)ccc12 [TDI-012615] | 4.84 and 4.22 and 3.7 and 4.44 and 5.12 and 5.02
COc1ccc(OCc2ccc3c(C)nc(NC(=N)N)nc3c2)cc1 [TDI-014175] | 5.68 and 4.34 and 4.64 and 4.76 and 4.72 and 4.54
Cc1nc(NC(=N)N)nc2cc(OCc3ccc(OC(F)F)cc3)ccc12 [TDI-014170] | 3.88 and 4.72 and 4.12 and 3.9 and 4.1 and 3.96 and 4.52 and 4.7 and 4.64 and 4.94
CCOc1ccc2c(C)nc(NC(=N)N)nc2c1 [TDI-014177] | 5.16 and 3.86 and 4.62 and 4.14 and 4.42 and 4.36
CNc1nc(NC(=N)N)nc2cc(OCc3ccc(OC)cc3)c(OC)cc12 [TDI-014185] | 3.78 and 4.24 and 4.26 and 4.74 and 4.55
COc1cc2c(C)nc(NC(=N)N)nc2cc1OCc1ccccc1 [TDI-012943] | 5.56 and 4.62 and 6.38 and 5.32 and 5.86 and 5.46 and 6.42 and 4.9 and 4.72
Cc1nc(NC(=N)N)nc2cc(OCC3CCCOC3)ccc12 (stereo not shown) [TDI-014167] | 4.74 and 4.44 and 4.2 and 4.64 and 4.3 and 5
CNc1nc(NC(=N)N)nc2cc(OCC3CCOCC3)ccc12 [TDI-014188] | 4.46 and 4.78 and 4.84 and 5 and 4.82 and 4.54
Cc1nc(NC(=N)N)nc2cc(OCC3CC3)ccc12 [TDI-014171] | 4.34 and 5.12 and 4.22 and 4.02 and 3.08 and 4 and 3.4 and 4.6 and 4.78 and 5.36 and 5.02
CCOc1ccc(COc2ccc3c(C)nc(NC(=N)N)nc3c2)cc1 [TDI-014176] | 4.82 and 5.34 and 4.9 and 4.86 and 4.26 and 3.86
Cc1nc(NC(=N)N)nc2cc(OCc3cnccn3)ccc12 [TDI-014181] | 4.72 and 4.28 and 4.06 and 5.32 and 4.42
CCCOc1ccc2c(C)nc(NC(=N)N)nc2c1 [TDI-014178] | 4.74 and 4.72 and 4.48 and 4.08 and 4.22
Cc1nc(NC(=N)N)nc2cc(OCC3CCCCC3)ccc12 [TDI-014169] | 4.9 and 4.46 and 4.44 and 4.24 and 5.22
COc1ccc2nc(N)nc(C)c2c1 [TDI-012610] | 5.06 and 5.3 and 4.76 and 5.08 and 6.44 and 5.56 and 5.1 and 5.2 and 4.94
Cc1nc(NC(=N)N)nc2cc(N3CCc4ccccc4C3)ccc12 [TDI-014186] | 5.28 and 5 and 5.44
Cc1nc(NC(=N)N)nc2cc(OCc3ccc(OC(F)(F)F)cc3)ccc12 [TDI-014172] | 4.62 and 4.64 and 3.64 and 3.96 and 4.74 and 4.82
Cc1nc(NC(=N)N)nc2cc(OCc3cccnn3)ccc12 [TDI-014179] | 5.26 and 4.72 and 3.92 and 4.46 and 4.32 and 4.68
COc1ccc(COc2ccc3c(C)nc(NC(=N)N)nc3c2)cn1 [TDI-014173] | 5.16 and 3.8 and 4.04 and 4.5 and 3.98 and 3.6 and 3.66 and 3.64 and 3.58 and 3.86 and 4.36 and 4.42 and 4.66 and 4.72 and 5.76
Cc1nc(NC(=N)N)nc2cc(OCC3CCOC3)ccc12 (stereo not shown) [TDI-014174] | 3.98 and 4.04 and 4 and 4.42 and 4.02 and 3.94 and 4.6 and 4.36 and 4.32 and 4.28 and 3.46
CNc1nc(NC(=N)N)nc2cc(OCc3ccc(OC)cc3)ccc12 [TDI-014190] | 4.6 and 4.72 and 4.4 and 3.78 and 4.5 and 4.58
CNc1nc(NC(=N)N)nc2cc(OCc3ccccc3)c(OC)cc12 [TDI-014184] | 5.2 and 4.6 and 4.02
COc1ccc(COc2ccc3c(C)nc(NC(=N)N)nc3c2)cc1OC [TDI-014180] | 4.76 and 5.28 and 6.02 and 5.54 and 4.14 and 4.58
Cc1nc(NC(=N)N)nc2cc(OCC3CCCCO3)ccc12 (stereo not shown) [TDI-014192] | 5.26 and 3.82 and 4.36 and 3.42 and 3.64 and 3.72 and 4.24 and 3.12 and 4.64 and 5.56 and 5.06
COc1ccc2c(C)nc(NC(=N)N)nc2c1 [TDI-012631, reference compound] | 3.78 and 4.78 and 4.32 and 4.98 and 4.84 and 4.54 and 4.6 and 4.4 and 4.7
Cc1nc(NC(=N)N)nc2cc(OC3CCCc4ccccc43)ccc12 (stereo not shown) [TDI-014183] | 4.52 and 4.48 and 4.4 and 4.86
CCOc1cc2c(C)nc(NC(=N)N)nc2cc1OCc1ccccc1 [TDI-013758] | 4.26 and 4.22 and 4.44 and 4.2 and 3.5 and 3.62
COc1ccc(COc2ccc3c(C)nc(NC(=N)N)nc3c2)cc1 [TDI-013000] | 5.2 and 5.78 and 5.28 and 5.38 and 5.92 and 5.46 and 5.14 and 5.02 and 5.66 and 4.68 and 5.36
Cc1nc(NC(=N)N)nc2cc(OCc3ccc(S(C)(=O)=O)cc3)ccc12 [TDI-014182] | 5 and 4.06 and 3.94 and 3.34 and 3.84 and 4.28 and 5.28 and 4.58

Same assay, conditions: Supplemental Figure 1 Panel D; compounds of Fig 4; individual replicate values

Compound | Weight per female
Cc1nc(NC(=N)N)nc2cc(OCc3ccc(OC(F)F)cc3)ccc12 [TDI-014170] | 4.86 and 5.18 and 4.4 and 4.8 and 3.5 and 4.26 and 4.44 and 4.32
CNc1nc(NC(=N)N)nc2cc(OCC3CCOCC3)ccc12 [TDI-014188] | 4.3 and 5.68 and 4.6 and 4.1 and 5.96 and 5.26 and 5.16 and 5.56 and 5.28 and 3.42 and 3.88 and 5.4 and 5.08 and 4.38 and 4.22 and 4.44 and 4.5 and 4.78
Cc1nc(NC(=N)N)nc2cc(N3CCc4ccccc4C3)ccc12 [TDI-014186] | 5.32 and 4.54 and 5.2 and 5.02 and 4.92 and 5.66 and 5.6 and 4.78 and 4.46 and 4.38 and 4.58 and 3.36 and 3.74 and 4.08 and 3.86 and 4.3 and 4.76 and 5.44
CNc1nc(NC(=N)N)nc2cc(OCc3ccccc3)c(OC)cc12 [TDI-014184] | 4.82 and 4.92 and 5.5 and 5.18 and 5.64 and 3.48 and 3.64 and 4.54 and 3.74 and 4.46
COc1ccc2c(C)nc(NC(=N)N)nc2c1 [TDI-012631, reference compound] | 4.88 and 5.92 and 4.76 and 4.86 and 4.78 and 4.22 and 5.88 and 5.36 and 4.48 and 4.2 and 5.32 and 5 and 5.16
